According to PubChem BioAssay AID493014 (National Center for Advancing Translational Sciences (NCATS), 2011):
Screen size: about 340,000 compounds; about 170 (0.05%) were called active. The inconclusive results got no clear call from the source; some entries with a clear call stand among them for comparison. Calls follow the shape of the dose curve; as a rule, active = well fitted inhibition curve with a large enough effect in the signal ratio, with a control signal flat (not every such curve was filed as active); inconclusive = small, poorly fitted or top-dose-only effect, or effect the other way, or a change in a side signal; inactive = flat fitted curve, though single readings scatter; the % refers to the signal ratio. A potency beside an inconclusive call is a rough fit, not a confirmed value.
Potency is read from the fitted curve at half-maximal effect.

Assay: qHTS Assay to Find Inhibitors of Chronic Active B-Cell Receptor Signaling;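 as to activity change, negative = inhibition: plate controls were basal doxycycline-induced cells for no effect and cells given 10 µM MG132 for full effect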
Settings: ABC-DLBCL IkBa-CBG/CBR reporter, luminescence ratio (green luciferase fused to IkBa over red control in TMD8 lymphoma cells), 4 h; activity change, negative = inhibition: at 46.1 µM (top of the series)
Method in brief: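 TMD8 ABC-DLBCL cells carrying doxycycline-inducible green luciferase fused to IkappaBalpha plus unfused red luciferase were exposed to compounds (up to 46 uM) for 4 hrs at 37C. Activity came from the overlap-corrected green/red luminescence ratio.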
For `Cc1ccc(N2CCN(CCc3nc4cc(NS(C)(=O)=O)ccc4n3C)CC2)cc1`, the activity change, negative = inhibition was inconclusive: 1.05%.
For `CN1CCN(CCCNC(=O)CCc2nnc3n(Cc4ccccc4Cl)c(=O)c4ccccc4n23)CC1`, the activity change, negative = inhibition was “inactive”.
With `CN1CCN(c2ccc(NC(=O)c3ccc([N+](=O)[O-])o3)cc2Cl)CC1` the Potency was inconclusive: 25.1 µM [falling, partial curve].
For `COc1ccc(CCNC(=O)CCSc2nc(-c3ccco3)cc(C(F)(F)F)n2)cc1OC`, the activity change, negative = inhibition was inconclusive: 18.7%.
In the case of `N#Cc1ccccc1N=Cc1ccc(Br)cc1`, the activity change, negative = inhibition is reported as inconclusive: 0.179%.
For `CCOC(=O)CSc1ncc(-c2ccc([N+](=O)[O-])cc2)[nH]1`, the activity change, negative = inhibition was inconclusive: 5.9%.
For `CC(=O)c1c(C)[nH]c(C(=O)Nc2ccc3c(c2)OCCO3)c1C`, the activity change, negative = inhibition was inconclusive: -13.5%.
For `CC(C)n1nc(C(=O)Nc2nc3ccccc3[nH]2)c2ccccc2c1=O`, the Potency was inconclusive: 20 µM [falling, single point].
In the case of `CCN(Cc1cc2ccccc2[nH]c1=O)S(=O)(=O)c1ccccc1`, the Potency is reported as inconclusive: 11.6 µM [falling, partial curve].
With `COc1ccc(C(C)(C)C)cc1S(=O)(=O)N1CCC(C(N)=O)CC1` the activity change, negative = inhibition was inconclusive: 0.377%.
For `CCOC(=O)c1nnc(-c2ccc(C)cc2)nc1Sc1ccccc1Cl`, the activity change, negative = inhibition was inconclusive: 8.52%.
With `O=C1c2ccccc2NC(c2cccs2)N1O` (stereo not drawn) the activity change, negative = inhibition was inconclusive: 0.931%.
For `N#C/C(=C(/O)CSc1ncn[nH]1)c1nc2ccccc2[nH]1`, the activity change, negative = inhibition was inconclusive: -9.06%.
In the case of `C=CCNc1nc2c(c(=O)n(C)c(=O)n2C)n1Cc1ccc(F)cc1`, the activity change, negative = inhibition is reported as inconclusive: 13.3%.
With `O=C(CN1C(=O)NC(c2ccccc2)(c2ccccc2)C1=O)Nc1ccc(N2CCOCC2)cc1` the activity change, negative = inhibition was inconclusive: 1.96%.
With `Cc1ccc(NC(=O)Cn2nc(-c3ccccc3)nc(Cc3ccc(Cl)cc3)c2=O)cc1` the activity change, negative = inhibition was “inactive”.
With `COc1ccccc1CNC(=O)C1CCCN(S(=O)(=O)c2cccc3nonc23)C1` (stereo not drawn) the activity change, negative = inhibition was inconclusive: -9.91%.
With `CCOc1cc(/C=N/N=C(/N)c2nonc2N)cc(Br)c1OCc1ccc(Cl)cc1` the Potency was inconclusive: 7.31 µM [rising, partial curve].
For `C=CCNc1nc(C)c(CNc2c(C)cc(C)cc2C)nc1C#N`, the activity change, negative = inhibition was inconclusive: 6.61%.
With `COc1ccc(-c2c(-c3ccc(OCC(=O)NN)cc3O)n[nH]c2C)cc1OC` the activity change, negative = inhibition was inconclusive: 5.03%.
For `CCOC(=O)c1ccc(-c2c(-c3ccc(OC)cc3)oc(=O)c3cc(OC)c(OC)cc23)cc1F`, the activity change, negative = inhibition was “inactive”.
In the case of `CCN(CC)C(=O)c1ccc(Nc2nnc(-c3ccc(O)cc3)c3ccccc23)cc1`, the activity change, negative = inhibition is reported as inconclusive: -8.22%.
In the case of `O=C1c2ccc(-c3ccc(F)cc3OCc3ccccc3)cc2S(=O)(=O)c2cccc(C(=O)N3CCCC3)c21`, the activity change, negative = inhibition is reported as inconclusive: 9.47%.
For `N/C(=N\OC(=O)COc1ccc2ccccc2c1)c1ccccn1`, the Potency was inconclusive: 35.5 µM [falling, single point].
For `Cc1ccccc1Nc1cc(C(=O)NCc2ccco2)c2ccccc2n1`, the activity change, negative = inhibition was inconclusive: 3.3%.
With `CCOc1ccc(-n2cc(-c3ccccc3)c3c(NCCc4ccccc4)ncnc32)cc1` the activity change, negative = inhibition was inconclusive: 19.1%.
For `COc1ccc(C(=O)O)cc1S(=O)(=O)Nc1ccccc1Cc1ccccc1`, the activity change, negative = inhibition was inconclusive: 13.7%.
For `C=CCn1c(SCC(=O)Nc2ccc(-c3nc4ccc(C)cc4s3)cc2)nnc1-c1ccccc1`, the activity change, negative = inhibition was inconclusive: 15.4%.
In the case of `O=C(CCc1ccccc1)Nc1ccc(Cl)cn1`, the Potency is reported as inconclusive: 35.5 µM [cytotoxic, single point].
In the case of `CC(=O)c1ccc(NC(=S)Nc2cccc3cnccc23)cc1`, the Potency is reported as inconclusive: 28.2 µM [falling, partial curve, poor fit].
With `COc1cccc(NC2=C(Cl)C(=O)OC2OC(=O)c2ccco2)c1` (stereo not drawn) the activity change, negative = inhibition was inconclusive: -4.96%.
For `CCCOCc1ccc(O)c2ncccc12`, the Potency was inconclusive: 3.16 µM [falling, full curve].
In the case of `COc1ccccc1C(=O)NC(=O)COC(=O)c1cccc(OC(F)F)c1`, the activity change, negative = inhibition is reported as “inactive”.
With `COc1ccc(NC(=S)N(Cc2cccnc2)Cc2ccco2)cc1` the activity change, negative = inhibition was inconclusive: 4.3%.
For `CCCn1c(SCC(=O)c2ccc3c(c2)OCCO3)n[nH]c1=O`, the activity change, negative = inhibition was inconclusive: -3.06%.
For `CCN(CC)S(=O)(=O)c1cccc(C(=O)Nc2cccc(C)c2)c1`, the activity change, negative = inhibition was inconclusive: 28.8%.
In the case of `CN1C(=O)CSc2ccc(NC(=O)NCCC3=CCCCC3)cc21`, the activity change, negative = inhibition is reported as inconclusive: 9.51%.
With `COc1cc(CN2CCCCC2C(=O)Nc2ccc(Oc3ccccc3)nc2)ccc1O` (stereo not drawn) the activity change, negative = inhibition was inconclusive: 10.5%.
For `COc1ccc(Cn2c(O)c(C=Nc3ccc(OC)cc3)c3ccccc3c2=O)cc1`, the activity change, negative = inhibition was “inactive”.
In the case of `CC1CCCC(C)N1CC(O)COC1CCC(C(C)(C)C)CC1` (stereo not drawn), the Potency is reported as inconclusive: 35.5 µM [falling, single point].
With `CNC(=O)CC1C(=O)N(C)C(=S)N1NC(=O)c1ccccc1` (stereo not drawn) the activity change, negative = inhibition was inconclusive: -0.96%.
For `CCCCc1ccc(Nc2ncccc2C#N)cc1`, the activity change, negative = inhibition was inconclusive: 15.5%.
For `O=C(CSc1nc2ccccc2nc1N1CCCCC1)Nc1ccc(F)cc1`, the Potency was inconclusive: 8.91 µM [falling, partial curve].
For `O=C(CSc1nc2nc3c(cc2c(=O)n1-c1ccccc1)CCCC3)Nc1ccccc1`, the activity change, negative = inhibition was inconclusive: 8.64%.
With `CCOC(=O)CSc1nc2ccccc2c(=O)n1NC(=O)c1ccccc1` the Potency was inconclusive: 12.6 µM [falling, partial curve].
In the case of `COc1ccc(NC(=O)C2CCCC2)cc1S(=O)(=O)N1CCOCC1`, the activity change, negative = inhibition is reported as inconclusive: 0.655%.
With `Cn1nccc1C(=O)OCC(=O)Nc1nc(-c2ccccc2)cs1` the activity change, negative = inhibition was inconclusive: -2.42%.
In the case of `COc1ccc([N+](=O)[O-])cc1N(CC(O)CN1C(=O)NC(C)(C)C1=O)S(=O)(=O)c1ccccc1` (stereo not drawn), the activity change, negative = inhibition is reported as inconclusive: 1.75%.
With `CC(NC(=O)CCNC(=O)c1ccco1)c1ccccc1` (stereo not drawn) the activity change, negative = inhibition was “inactive”.
With `Cc1cc(C(F)(F)F)cc(NNC(=O)NC(=O)c2c(F)cccc2Cl)n1` the Potency was inconclusive: 2.82 µM [rising, partial curve].
In the case of `CCOC(=O)N1CCN(C(=O)C2CCN(Cc3nc(-c4ccccc4C)oc3C)CC2)CC1`, the Potency is reported as inconclusive: 29.1 µM [falling, single point].
For `CCNC(=S)NNC(=O)c1cc(-c2cccc(OCC)c2)nc2ccccc12`, the Potency was inconclusive: 0.461 µM [falling, full curve, poor fit].
With `CCCn1nnc(NC(=S)NC(=O)CC)n1` the Potency was inconclusive: 1.16 µM [falling, full curve, poor fit].
In the case of `Cc1cc(=O)[nH]c(N/N=C/c2c(C)nn(-c3ccccc3Cl)c2Cl)n1`, the activity change, negative = inhibition is reported as inconclusive: -2.34%.
With `O=C(/C=C/c1ccco1)NC(=S)Nc1ccc(C(=O)O)cc1` the Potency was inconclusive: 2.82 µM [falling, full curve].
For `O=C(CCCC(=O)N(CC(=O)NC1CCCC1)Cc1ccccc1)Nc1ccccn1`, the activity change, negative = inhibition was inconclusive: 8.53%.
With `Cc1nccn1CCCNC(=O)c1nc(Cn2cc([N+](=O)[O-])cn2)no1` the activity change, negative = inhibition was inconclusive: 14.5%.
With `O=C(Cn1nnc(-c2ccncc2)n1)N(C1CCCCC1)C1CCCCC1` the Potency was inconclusive: 29.1 µM [falling, partial curve, poor fit].
For `CCO/C=C1\C(=O)N(c2ccccc2)C(=O)c2ccccc21`, the activity change, negative = inhibition was “inactive”.
In the case of `CS(=O)(=O)N1CCC(C(=O)N2CCN(c3ccccc3F)CC2)CC1`, the Potency is reported as inconclusive: 6.31 µM [falling, single point].
With `CCOC(=O)C1(CCc2ccccc2)CCN(C(=O)c2occc2C)CC1` the activity change, negative = inhibition was inconclusive: -13.8%.
For `Brc1cnc2nc(SC/C=C/c3ccccc3)[nH]c2c1`, the activity change, negative = inhibition was inconclusive: 0.851%.
With `COc1ccc(/C=N/NC(=O)CCCOc2ccc(Cl)cc2Cl)cc1` the activity change, negative = inhibition was “inactive”.
In the case of `O=C(c1ccc(Cl)c(Cl)c1)N1CCN(Cc2ccc3c(c2)OCO3)CC1`, the activity change, negative = inhibition is reported as inconclusive: -3.48%.
With `CCC(=O)Nc1ccc(S(=O)(=O)Nc2ccccn2)cc1` the activity change, negative = inhibition was inconclusive: -17.1%.
For `O=C(COC(=O)c1cccnc1Cl)Nc1nc(-c2ccccc2)cs1`, the activity change, negative = inhibition was inconclusive: 13.3%.
In the case of `COc1cc2c(cc1NC(=O)C(C)Sc1ccc(NC(C)=O)cc1)oc1ccccc12` (stereo not drawn), the activity change, negative = inhibition is reported as “inactive”.
For `Nc1nc(OCC2CCCCC2)c2[nH]cnc2n1`, the Potency was inconclusive: 35.5 µM [falling, single point].
For `CCOc1ccc(-c2nc(N)ncc2-c2ccc(Cl)cc2)c(O)c1`, the activity change, negative = inhibition was “inactive”.
In the case of `COc1ccc(CCN(C)C(=O)COC(=O)/C=C/c2ccc(C)o2)cc1OC`, the Potency is reported as inconclusive: 20.6 µM [falling, partial curve, poor fit].
With `COc1ccc(-c2c(C#N)c(SCC(=O)c3cc4ccccc4oc3=O)nc(C)c2C(=O)Nc2ccccc2)cc1` the activity change, negative = inhibition was inconclusive: 0.107%.
In the case of `Cc1ccc(CN(C(=O)c2ccc(Cl)c([N+](=O)[O-])c2)C2CCS(=O)(=O)C2)o1` (stereo not drawn), the activity change, negative = inhibition is reported as inconclusive: -6.66%.
For `CNC(=O)CC1C(=O)N(c2ccc(Cl)cc2)C(=S)N1NC(=O)c1cccc(F)c1` (stereo not drawn), the activity change, negative = inhibition was inconclusive: 0.397%.
In the case of `COc1ccc(OC)c(-n2c(-c3cccc(S(=O)(=O)N(C)C)c3)n[nH]c2=S)c1`, the activity change, negative = inhibition is reported as inconclusive: -0.471%.
In the case of `CC1=CC(C)(C)N(C(=O)CNC2CCCC2)c2cc(C)ccc21`, the activity change, negative = inhibition is reported as inconclusive: -11%.
For `Cc1cccc(NC(=S)NC(=O)c2oc3ccccc3c2C)n1`, the activity change, negative = inhibition was inconclusive: 8.94%.
With `CC[C@@]12C(=O)N(c3cccc(Br)c3)C(=O)N1[C@H](c1cccc(C)c1)[C@@H]1C(=O)N(Cc3ccccc3)C(=O)[C@@H]12` the activity change, negative = inhibition was inconclusive: 4.33%.
With `Cc1ccc(-c2cc(C(=O)Nc3nccs3)c3ccccc3n2)c(C)c1` the activity change, negative = inhibition was inconclusive: 27.4%.
